The assay relates to B6C3F1 mice, intracerebral ependymoblastoma, median survival T/C. Briefly: NCI In Vivo Anticancer Drug Screen. Data for tumor model Ependymoblastoma (intracerebral) in B6C3F1 mice. The following applies: T/C endpoint: median survival time, higher T/C = longer survival. On the procedure:
The antitumor activity of compounds was measured in mice bearing transplantable tumors. Survival or tumor size were measured and the results are expressed as the measurement made in the treated group (T) divided by the measurement made in the vehicle treated control group (C). The tumor model used in this assay is Ependymoblastoma (intracerebral) in B6C3F1 mice

[1] abbreviates: dose: 1600.0 mg/kg/injection, schedule: Q01DX005 (ip), vehicle: saline.

The list is a part of this screen's results and no random one: it is rich in T/C values a quarter to a half above the control, in often repeated tests (any T/C) and in doses without a T/C. Further doses and runs are listed elsewhere. T/C: endpoint of the treated group in % of that of the vehicle group. Some entries give survivors of the animals treated and no T/C: the source files T/C as zero there, which appears to mark a toxic dose or a test without result, not a measured value. Some survivor counts are full or nearly so, which does not show that the dose was tolerated: survival well below the control is almost never listed, so the zero probably covers shortened survival too. Survivors were counted at the toxicity check, usually on the fifth day, unless a day is given; later deaths do not show. Schedules are NCI's codes, read here as Q, the interval in days (D) or hours (H), X, the number of doses. Some schedules carry Z or #; the key to these is not given. Some doses were run more than once; the results are listed from low to high. For survival time, the PubChem record calls one and a half times the control and up active, and a quarter to a half above the control has no call in these data; cut-offs in other NCI protocols can differ. Some T/C values are followed by the survivors on the day toxicity was checked, most often the fifth; without a count, all were alive then.

On to `CN1c2c(nc(N)[nH]c2=O)NCC1CCNc1ccc(C(=O)NC(CCC(=O)O)C(=O)O)cc1` (configuration not stated), for which the T/C was 99, 100, 104, 112 % of control (dose: 100.0 mg/kg/injection, schedule: Q01DX005 (ip), vehicle: saline); 93, 106, 109, 110 % of control [9 of 10 alive] (dose: 200.0 mg/kg/injection, schedule: Q01DX005 (ip), vehicle: saline); 127 % of control (dose: 200.0 mg/kg/injection, schedule: Q12HX018 (ip), vehicle: saline); 110, 115, 116, 117 % of control (dose: 400.0 mg/kg/injection, schedule: Q01DX005 (ip), vehicle: saline); 107, 107 [9 of 10 alive], 109 [9 of 10 alive], 116 % of control (dose: 800.0 mg/kg/injection, schedule: Q01DX005 (ip), vehicle: saline); 107 [9 of 10 alive], 119, 135 % of control under setting [1]. Moreover, the survivor count runs as follows: (dose: 400.0 mg/kg/injection, schedule: Q01DX009 (ip), vehicle: saline) 8 of 10; (dose: 400.0 mg/kg/injection, schedule: Q12HX018 (ip), vehicle: saline) 10 of 10; (dose: 400.0 mg/kg/injection, schedule: Q#ADX018 (ip), vehicle: saline) 9 of 10; (dose: 800.0 mg/kg/injection, schedule: Q12HX018 (ip), vehicle: saline) 10 of 10; (dose: 800.0 mg/kg/injection, schedule: Q#A X018 (ip), vehicle: saline) 10 of 10; (dose: 800.0 mg/kg/injection, schedule: Q#ADX018 (ip), vehicle: saline) 10 of 10. For the same molecule, the survivor count under setting [1] is given as 9 of 10; the survivor count (dose: 1600.0 mg/kg/injection, schedule: Q01DX009 (ip), vehicle: saline) is 10 of 10; the survivor count (dose: 1600.0 mg/kg/injection, schedule: Q12HX018 (ip), vehicle: saline) was 9 of 10; the survivor count (dose: 1600.0 mg/kg/injection, schedule: Q#A X018 (ip), vehicle: saline) is 10 of 10.
As to `ClC(Cl)=C(Cl)Cl`, where the note is “dose: 400.0 mg/kg/injection, schedule: Q01DX005 (ip), vehicle: other”, the survivor count was 2 of 10.
Regarding `COC(=O)[C@@]12OC[C@]34[C@H]([C@@H](O)[C@@H]1O)[C@@]1(C)CC(=O)C(O)=C(C)[C@@H]1C[C@H]3OC(=O)[C@H](OC(=O)/C=C(\C)C(C)C)[C@@H]24`, the survivor count is 8 of 10 (dose: 0.25 mg/kg/injection, schedule: Q01DX005 (oral), vehicle: saline); 3 of 10 (dose: 2.0 mg/kg/injection, schedule: Q01DX001 (ip), vehicle: saline); 8 of 10 (dose: 2.0 mg/kg/injection, schedule: Q01DX005 (ip), vehicle: saline + alcohol); 0 of 10 (dose: 2.0 mg/kg/injection, schedule: Q12HX006 (ip), vehicle: saline); 1 of 10 and 3 of 10 (dose: 4.0 mg/kg/injection, schedule: Q01DX001 (ip), vehicle: saline); 7 of 10 (dose: 4.0 mg/kg/injection, schedule: Q01DX005 (oral), vehicle: saline). Further, the survivor count reads like this: (dose: 8.0 mg/kg/injection, schedule: Q01DX001 (ip), vehicle: saline) 0 of 10; (dose: 8.0 mg/kg/injection, schedule: Q01DX005 (oral), vehicle: saline) 3 of 10; (dose: 16.0 mg/kg/injection, schedule: Q01DX001 (oral), vehicle: saline) 2 of 10 and 4 of 10; (dose: 32.0 mg/kg/injection, schedule: Q01DX001 (oral), vehicle: saline) 0 of 10.
